In assay [1] the target is FGFR1 (FGF receptor 1) (UniProt P11362). Description: heading of Example 11, same peptide as in Example 1 (SPR).
Assay [2] has the same target. Kind of assay: SPR, Biacore T200, FGFR1 amine-coupled to the chip, peptide as analyte, 1:1 model.

The chains behind the UniProt entries cited, without tags or fusion partners. Residues count along the entry.
UniProt P11362, residues 22-376: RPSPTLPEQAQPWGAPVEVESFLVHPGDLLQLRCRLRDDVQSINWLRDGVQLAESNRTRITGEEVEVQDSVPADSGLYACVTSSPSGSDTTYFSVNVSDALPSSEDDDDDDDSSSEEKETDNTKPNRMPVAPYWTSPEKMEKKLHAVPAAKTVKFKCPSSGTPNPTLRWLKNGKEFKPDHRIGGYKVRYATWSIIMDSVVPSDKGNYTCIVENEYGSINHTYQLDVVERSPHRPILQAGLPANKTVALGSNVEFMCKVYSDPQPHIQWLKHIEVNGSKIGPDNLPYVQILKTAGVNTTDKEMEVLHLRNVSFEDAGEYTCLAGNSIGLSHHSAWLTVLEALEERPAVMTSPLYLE

Results are given in words; binding and its absence hold for the method and conditions named. Some entries that bind do so weakly or less than the wild type.

As for CAAELAALEAELAALEGVPGDNNGTRGKLYHLKNKLHRLKNAC [100nX (X is 9: SEQ ID NO: 9)], the binding entry with FGFR1 (FGF receptor 1) [1] and with FGFR1 (FGF receptor 1) [2] was “binds” throughout.

The record behind these values is US20230139883A1, “Peptides for Inducing Differentiation” (Shimadzu Corporation, priority 2020, published 2023).
